# PubChem BioAssay AID2685 (National Center for Advancing Translational Sciences (NCATS), 2010)
# This is one part of the list. These are further read-outs of the screen, such as a control signal, another cell line or another target. No call is given for them. Compounds called inactive in the main read-out are mostly missing here. Words in brackets tell the shape of the fitted curve; partial curves, single points and poor fits give uncertain potencies.
# Test: qHTS Assay for Lipid Storage Modulators in Drosophila S3 Cells;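 on cell number change: cells counted by Cell Tracker Red CMTPX staining in the red channel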
# Conditions: BODIPY lipid droplet fluorescence, 18-24 h; for cell number change: measured here: cell count max response, cells fed with added oleic acid
# Method in brief: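 Drosophila S3 cells loaded with oleic acid (400 uM, as added) and compounds at several concentrations; lipid droplets imaged by 488-nm laser-scanning cytometry, 500–530 nm intensity and object ratio to cell channel. Percent activity normalized to 20 uM Triacsin C.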
# [1] = measured here: lipid fluorescence (Fed channel) AC50, cells fed with added oleic acid
# [2] = measured here: cell number channel AC50, cells fed with added oleic acid
Structure (SMILES),cell number change,AC50 [1],AC50 [2]
CC[n+]1ccc(/C=C/c2c[nH]c3ccccc23)cc1,-5.9%,"29.1 µM [falling, single point]",–
CC(C)Cc1nnc(NC(=O)CCC(=O)N2CCN(S(=O)(=O)c3ccccc3)CC2)s1,333%,"23.1 µM [rising, single point]","6.51 µM [rising, partial curve]"
O=C(/C=C/c1ccccc1Br)c1ccc2c(c1)OCO2,19.3%,"29.1 µM [falling, single point]",–
COc1cc(NC(=O)COc2ccc(C)c(C)c2)ccc1NC(=O)c1ccco1,-25%,–,–
CC1(C)CC(C(CC(=O)O)c2ccccc2)CCO1 (stereo not given),32%,"29.1 µM [rising, single point]","29.1 µM [rising, single point]"
CC(C)Cc1cc(C(=O)Nc2sc3c(c2C#N)CCC3)no1,–,–,"0.231 µM [rising, full curve, poor fit]"
O=C(COC(=O)CC1CC2CCC1C2)Nc1c(F)cccc1F (stereo not given),-25.4%,–,–
CCOc1ccc(/C=C2\SC(=S)N(CC(=O)N(CCO)C(C)(C)C)C2=O)cc1,-42.3%,"29.1 µM [falling, single point]","23.1 µM [falling, partial curve, poor fit]"
O=C(COC(=O)c1c(F)cccc1F)Nc1ccc2c(c1)OCO2,-15.3%,–,–
COC(=O)CN1C(=O)CC(C)(C)S(=O)c2ccccc21 (stereo not given),-48.9%,"8.2 µM [falling, partial curve]","16.4 µM [falling, single point]"
COC(=O)c1cc(C)nc2c1c(C)nn2-c1ccccc1,1.16%,–,–
CN(C)S(=O)(=O)c1cccc(NC(=O)CN(CCO)CC(=O)Nc2cccc(S(=O)(=O)N(C)C)c2)c1,–,"29.1 µM [rising, single point]","2.59 µM [rising, partial curve, poor fit]"
CCc1ccc(C(=O)NC(CC(C)C)C(=O)O)cc1 (stereo not given),7.37%,"29.1 µM [falling, single point]",–
CCN(c1ccccc1)S(=O)(=O)c1ccc(Cl)c(C(=O)O)c1,-19.3%,"4.61 µM [falling, partial curve, poor fit]",–
O=C(C1CCCCC1)N1CCCC(c2nc3c(nnn3Cc3ccccc3)c(=O)[nH]2)C1 (stereo not given),-29.4%,"0.146 µM [falling, partial curve, poor fit]",–
O=C(NCc1ccccn1)c1ccc(Cl)c(NC2=NC3CS(=O)(=O)CC3S2)c1 (stereo not given),-21.7%,"10.3 µM [falling, partial curve, poor fit]",–
CN(C)c1cccc(NC2=CC(=[N+]3CCOCC3)CC(C)(C)C2)c1,-6.77%,–,"0.058 µM [falling, full curve, poor fit]"
CCN(CC)c1ccc(/C=C2\C(=O)c3ccc(C(=O)O)cc3C2=O)cc1,-145%,"29.1 µM [falling, partial curve]","29.1 µM [falling, single point]"
CCOC(=O)c1[nH]c2ccccc2c1NC(=O)c1ccc(S(=O)(=O)N2CCCCC2)cc1,-28.9%,"5.8 µM [falling, partial curve]",–
COc1ccccc1NS(=O)(=O)c1cccc(C(=O)N/N=C/c2ccc([N+](=O)[O-])o2)c1,-36.2%,"18.4 µM [falling, single point]","32.6 µM [falling, single point]"
O=C(O)CN1C(=O)/C(=C\c2cn(CC(=O)N3CCOCC3)c3ccccc23)SC1=S,-38.5%,"7.31 µM [falling, partial curve]","0.651 µM [falling, full curve]"

Structure (SMILES),cell number change,AC50 [1],AC50 [2]
CC(C)(C)c1ccc(COc2ccsc2C(=O)O)cc1,-20.2%,–,"1.16 µM [falling, single point]"
COc1cccc(NC(=O)CNC(C)CCC(C)C)c1 (stereo not given),-19.7%,"14.6 µM [falling, single point]",–
O=c1c2c(nc3c(-c4ccccc4)c[nH]n13)CCC2,5.19%,"0.259 µM [falling, full curve, poor fit]",–
Cc1ccccc1NC(=O)Nc1nc2ccc(S(C)(=O)=O)cc2s1,33.4%,–,"14.6 µM [rising, partial curve, poor fit]"
Cc1ccc(CNC(=O)CSc2nc3ccccc3c(=O)n2CCCO)cc1,73.6%,–,"4.61 µM [rising, partial curve]"
OCC[C@@H]1C[C@@H](O)[C@H](O)[C@@]2(Cc3ccccc3CO2)O1,22.2%,–,–
CC(=O)c1ccc(-c2nnc(CCC(=O)N3CCCC(C(=O)CC(C)C)C3)o2)s1 (stereo not given),-6.12%,–,–
O=C(CSc1ncn[nH]1)c1cccc([N+](=O)[O-])c1,-33.7%,"13 µM [falling, partial curve, poor fit]",–
CCOC(=O)c1cc(C)[nH]c(=S)c1C#N,-14.7%,–,–
COC(=O)[C@H](Cc1ccccc1)NC(=O)NCc1ccc(C)cc1,6.9%,"29.1 µM [falling, single point]",–
COc1ccccc1N1CCN(C(=O)Nc2ccc([N+](=O)[O-])cc2)CC1,8.96%,–,–
CN1C=CC=C/C1=C1/N=C(c2ccccc2)OC1=O,–,"0.517 µM [falling, single point]",–
Cc1cc(C)nc(-n2nc(C)cc2NC(=O)c2ccc(S(=O)(=O)N3CCOCC3)cc2)n1,6.29%,–,"0.461 µM [falling, single point]"
O=C(O)/C(=C\c1ccccc1OC(F)F)c1ccc(-c2ccccc2)cc1,2.56%,"0.058 µM [rising, partial curve, poor fit]",–
CC1(C)CC(=O)C(N=Nc2cc(Cl)c(Cl)c(Cl)c2)=C(O)C1,6.14%,"0.00517 µM [rising, full curve, poor fit]",–
CCOc1ccc(S(=O)(=O)n2cc(-c3ccc(F)cc3)c(N)n2)cc1,-10.7%,"0.92 µM [rising, full curve]",–
CCCCNC(=O)c1cc2c(C)cc(C)cc2[nH]1,8.68%,"0.291 µM [rising, full curve, poor fit]",–
CCOC(=O)c1nn(-c2ccccc2)c(=O)cc1SC1CCCCC1,32.4%,"3.66 µM [rising, partial curve]",–
CCCOc1ccc(C(F)(F)F)cc1NC(=O)CCc1c(C)noc1C,-3.8%,–,–
O=C(COC(=O)CNC(=O)c1ccccc1F)NC12CC3CC(CC(C3)C1)C2,-0.223%,"0.366 µM [rising, full curve]",–
O=C(OCc1nnc(-c2ccccc2)o1)c1cc(=O)[nH]c2ccccc12,19.3%,–,–

Structure (SMILES),cell number change,AC50 [1],AC50 [2]
C=CCn1c(SCC(=O)NC2CC2)nnc1-c1cccs1,9.38%,–,–
O=C(Oc1ccc(-c2ccccc2)cc1)N1CCCCC1,12.5%,"2.59 µM [falling, full curve, poor fit]",–
CCOc1ccc(C2=NNC(c3cccs3)=Nc3ccc(OC)cc32)cc1,-40.6%,"18.4 µM [falling, single point]","29.1 µM [falling, single point]"
COc1cccc(N2CCN(C(=O)CN(C)S(=O)(=O)c3ccc4c(c3)CCC(=O)N4)CC2)c1,-29.9%,"4.11 µM [rising, full curve]",–
O=C(CN1CCN(c2ccc(F)cc2)CC1)N1N=CCC1c1ccccc1 (stereo not given),22.3%,–,–
CC(=O)N1CCN(c2ncnc3ccccc23)CC1,18.5%,"0.651 µM [rising, partial curve, poor fit]",–
CN(CC(=O)Nc1ccc(F)c(F)c1F)C(=O)CC1CCCCC1,-16.6%,"0.461 µM [falling, partial curve, poor fit]","3.66 µM [falling, partial curve, poor fit]"
COc1cccc(C(c2c(NC(=O)c3ccco3)sc(C)c2C)N2CCOCC2)c1 (stereo not given),–,"18.4 µM [falling, partial curve]",–
CSc1nccc(NC(=O)c2ccc(C(C)(C)C)cc2)n1,-47%,"32.6 µM [falling, single point]","32.6 µM [falling, single point]"
CC1CCCN(C(=O)Cn2c(=O)oc3ccccc32)C1 (stereo not given),-1.58%,"16.4 µM [falling, single point]",–
Cn1c(=O)n(CCc2ccccc2)c(=O)c2c1nc1n2CCN1Cc1ccco1,-28.7%,"18.4 µM [rising, single point]",–
CCSC1=C(C#N)C(c2cccc(OC)c2)CC(=O)N1 (stereo not given),-123%,"6.51 µM [falling, single point]","29.1 µM [falling, single point]"
CC1(C)CC(=O)C2=C(C1)Oc1ncn3nc(-c4cccnc4)nc3c1C2c1ccccc1 (stereo not given),-2.83%,–,–
CCN(CCO)C(=O)C(c1ccccc1)c1ccccc1,-79.6%,"14.6 µM [falling, partial curve]","18.4 µM [falling, single point]"
Cc1ccc(NS(=O)(=O)c2cccc(C(=O)N3CCOCC3)c2)cc1,4.07%,–,–
COC(=O)C1C(c2ccc(OC)cc2)NC(=O)NC1(O)C(F)(F)Cl (stereo not given),-32%,"18.4 µM [falling, partial curve]",–
O=C(Nc1cccnc1)c1ccccc1F,21%,–,–
CCOc1ccc(C(=O)NNC2CC(=O)N(CCc3ccccc3)C2=O)cc1OC (stereo not given),-6.66%,"6.51 µM [rising, single point]",–
COc1ccc(OC)c(NC(=O)C2CCN(S(=O)(=O)c3ccc4c(c3)OCCO4)CC2)c1,–,"0.731 µM [rising, partial curve, poor fit]",–

# Random excerpt: five records from the list
Structure (SMILES),cell number change,AC50 [1],AC50 [2]
CCOc1ccc(C2=NNC(c3cccs3)=Nc3ccc(OC)cc32)cc1,-40.6%,"18.4 µM [falling, single point]","29.1 µM [falling, single point]"
CC(=O)N1CCN(c2ncnc3ccccc23)CC1,18.5%,"0.651 µM [rising, partial curve, poor fit]",–
COc1ccc(OC)c(NC(=O)C2CCN(S(=O)(=O)c3ccc4c(c3)OCCO4)CC2)c1,–,"0.731 µM [rising, partial curve, poor fit]",–
CCOc1ccc(C(=O)NNC2CC(=O)N(CCc3ccccc3)C2=O)cc1OC (stereo not given),-6.66%,"6.51 µM [rising, single point]",–
C=CCn1c(SCC(=O)NC2CC2)nnc1-c1cccs1,9.38%,–,–
